# Data reported in US11273206B2, “Targeting of pharmaceutical agents to pathologic areas using bifunctional fusion polypeptides” (Counterpoint Biomedica LLC, priority 2014, dated 2022).
# At least one peptide structure holds a part that was inferred or is arguable (an end, a ring closure or a residue). Where a SMILES comes first, the peptide text is derived from it. The star is where a group is joined. FITC = O=C1OC2(c3ccc(O)cc3Oc3cc(O)ccc32)c2ccc(NC(=S)*)cc21
# System: Collagen-Agarose beads
# Experiment: Collagen-agarose column chromatography of FITC-labeled collagen-binding constructs
# Conditions: increasing amounts applied to Collagen-Agarose beads, in vitro; FIG. 3B
# Source text: Three fluorescein isothiocyanate (FITC)-labeled collagen-binding constructs were generated and tested. Construct 1 (ac-L1/XC-BD1/L3/FITC) had the sequence of Ac-RRGVHVGWREPSFMALSMPHGGSGK-(FITC) (SEQ ID NO: 45); Construct 2(ac-L1/XC-BD2/L3/FITC) had the sequence of Ac-RRGVHVGWREPGRMELNMPHGGSGK-(FITC) (SEQ ID NO: 46); Construct 3 (ac-L2/XC-BD2/L3/FITC) had the sequence of Ac-RRGVRVAWREPGRMELNMPHGGSGK-(FITC) (SEQ ID NO: 47). […] Increasing amounts of these constructs were applied to the chromatography columns of Collagen-Agarose beads, followed by successive washes with (1) PBS, (2) PBS/PBS, Tween-20, BSA. The retention of the constructs to the column was documented by use of a blue-light transilluminator with an amber filter; quantitative data was obtained with a Quantus fluorometer.
compound,measurement,value
"CSCC[C@H](NC(=O)[C@H](CCCNC(=N)N)NC(=O)CNC(=O)[C@@H]1CCCN1C(=O)[C@H](CCC(=O)O)NC(=O)[C@H](CCCNC(=N)N)NC(=O)[C@H](Cc1c[nH]c2ccccc12)NC(=O)CNC(=O)[C@@H](NC(=O)[C@H](Cc1c[nH]cn1)NC(=O)[C@@H](NC(=O)CNC(=O)[C@H](CCCNC(=N)N)NC(=O)[C@H](CCCNC(=N)N)NC(C)=O)C(C)C)C(C)C)C(=O)N[C@@H](CCC(=O)O)C(=O)N[C@@H](CC(C)C)C(=O)N[C@@H](CC(N)=O)C(=O)N[C@@H](CCSC)C(=O)N1CCC[C@H]1C(=O)N[C@@H](Cc1c[nH]cn1)C(=O)NCC(=O)NCC(=O)N[C@@H](CO)C(=O)NCC(=O)N[C@@H](CCCCNC(=S)Nc1ccc2c(c1)C(=O)OC21c2ccc(O)cc2Oc2cc(O)ccc21)C(=O)O [Construct 2, Ac-RRGVHVGWREPGRMELNMPHGGSGK-(FITC)] (Ac-RRGVHVGWREPGRMELNMPHGGSGK(FITC)-OH)",binding to collagen (retention of the constructs to the column),bound to collagen in a dose dependent manner
